{
  "source": "paper PMC5996148",
  "assay_in_all_cases": "protein microarray (ProtoArray v5.0), streptavidin-Alexa Fluor 647",
  "settings_in_all_cases": "3'-biotin; 20 mM Tris (pH 7.5), 5 mM MgCl2, 100 mM KCl, 0.1% Tween-20, A/T-rich and random oligonucleotide blockers; temperature not stated; high values mean tight binding",
  "key": {"[1]": {"system": "IFIH1 (human)"}, "[2]": {"system": "IFIT3 (human)"}, "[3]": {"molecular_target": "T1, IFIT5 (UniProt Q13325)", "T1 sequence": "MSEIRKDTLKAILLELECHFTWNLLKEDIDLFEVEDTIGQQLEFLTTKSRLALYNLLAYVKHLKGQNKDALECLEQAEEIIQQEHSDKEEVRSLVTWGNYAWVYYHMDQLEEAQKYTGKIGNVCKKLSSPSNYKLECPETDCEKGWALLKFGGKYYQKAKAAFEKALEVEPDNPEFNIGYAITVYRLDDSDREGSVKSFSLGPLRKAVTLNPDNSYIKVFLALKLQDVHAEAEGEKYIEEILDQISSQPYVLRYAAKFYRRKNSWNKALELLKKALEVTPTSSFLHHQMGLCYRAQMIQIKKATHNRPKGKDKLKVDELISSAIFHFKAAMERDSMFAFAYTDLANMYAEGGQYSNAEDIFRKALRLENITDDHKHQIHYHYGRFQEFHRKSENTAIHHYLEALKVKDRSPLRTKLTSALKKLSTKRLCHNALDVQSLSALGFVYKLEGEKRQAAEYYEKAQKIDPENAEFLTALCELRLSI"}, "[4]": {"system": "IFNA2 (human)"}, "[5]": {"system": "IFNA6 (human)"}, "[6]": {"system": "IFNA8 (human)"}, "[7]": {"system": "IFNK (human)"}, "[8]": {"system": "IFNW1 (human)"}, "[9]": {"system": "IGHA1 (human)"}, "[10]": {"system": "IGHM (human)"}},
  "note": "This is one part of the list. For some of these results: The exact form of the protein is not confirmed.",
  "data": [
    {"sequence": "GGTGACAGGGGTATGGGGAGGGG [G4-2 biotinylated (Ct1)]", "values": [
      {"measurement": "binding signal", "setting": "[1]", "result": -0.399, "unit": "z-score"},
      {"measurement": "binding signal", "setting": "[2]", "result": -0.401, "unit": "z-score"},
      {"measurement": "binding signal", "setting": "[3]", "result": 3.7, "unit": "z-score"},
      {"measurement": "binding signal", "setting": "[4]", "result": -0.375, "unit": "z-score"},
      {"measurement": "binding signal", "setting": "[5]", "result": -0.369, "unit": "z-score"},
      {"measurement": "binding signal", "setting": "[6]", "result": -0.388, "unit": "z-score"},
      {"measurement": "binding signal", "setting": "[7]", "result": -0.387, "unit": "z-score"},
      {"measurement": "binding signal", "setting": "[8]", "result": -0.362, "unit": "z-score"},
      {"measurement": "binding signal", "setting": "[9]", "result": -0.385, "unit": "z-score"},
      {"measurement": "binding signal", "setting": "[10]", "result": -0.367, "unit": "z-score"}
    ]}
  ]
}
